Experimental data published in PubChem BioAssay AID2685 (National Center for Advancing Translational Sciences (NCATS), 2010).
The list shows a part of the results. Shown are side measurements of this screen, not its main read-out; they come without a call. The list favours compounds with an active or inconclusive main result. Words in brackets tell the shape of the fitted curve; partial curves, single points and poor fits give uncertain potencies.

Assay: qHTS Assay for Lipid Storage Modulators in Drosophila S3 Cells;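 on cell number change: cells counted by Cell Tracker Red CMTPX staining in the red channel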
Conditions: BODIPY lipid droplet fluorescence, 18-24 h; for cell number change: measured here: cell count max response, cells fed with added oleic acid
Method in brief: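 Drosophila S3 cells got compounds at several concentrations plus oleic acid (400 uM solution). Laser-scanning cytometry with 488 nm excitation read lipid droplets at 500-530 nm and cells at 575-640 nm. Percent activity was relative to 20 uM Triacsin C.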

[1] = measured here: cell number channel AC50, cells fed with added oleic acid
[2] = measured here: lipid fluorescence (Fed channel) AC50, cells fed with added oleic acid

Compound | cell number change [%] | AC50 [1] | AC50 [2]
O=C(CSc1nnc(-c2cccnc2)n1Cc1ccccc1)N1CCOCC1 | 32.1 | 0.164 µM [rising, full curve] | 3.26 µM [rising, single point]
C=CCn1cnc2c(nnn2-c2ccc(OC)c(OC)c2)c1=O | 153 | 29.1 µM [rising, single point] | 
Cc1ccccc1-n1ncc(C(C)NS(=O)(=O)c2ccccc2Cl)c1C (stereo not drawn) | -1.13 |  | 0.517 µM [rising, single point]
Cc1ccc(C(=O)OC(C(=O)O)C(OC(=O)c2ccc(C)cc2)C(=O)O)cc1 (stereo not drawn) | -25.6 |  | 16.4 µM [falling, single point]
COc1ccc(/C=N/NC(=S)Nc2ccccc2)cc1COc1ccccc1F |  |  | 0.731 µM [rising, full curve]
CCOC(=O)c1c(CC(C)C)csc1NC(=O)CCl | 12.9 |  | 20.6 µM [rising, single point]
CCOc1ccc(CCNC(=O)c2cc(C)nn2-c2ccccc2)cc1 | 56.5 | 1.64 µM [rising, partial curve, poor fit] | 5.17 µM [rising, partial curve]
CC(=O)Oc1ccc2oc(=O)c3c(c2c1)CCCN3C(=O)CN1CCN(c2ncccn2)CC1 | -33 | 18.4 µM [falling, single point] | 
c1ccc(-c2cn(CC3CCCCC3)nn2)cc1 | 10.2 |  | 
CC(=O)c1cccc(NC(=O)NCc2ccco2)c1 |  | 7.31 µM [falling, single point] | 6.51 µM [falling, single point]
CC(C)=NNc1nc(-c2ccc([N+](=O)[O-])cc2)cs1 | 93.5 | 18.4 µM [rising, single point] | 
COc1cc2c(C#N)c(N3CCCC3)nc(N)c2c(N)n1 |  |  | 10.3 µM [falling, partial curve]
CC1=NN(C(N)=S)C(=O)C1N=Nc1cccc(Cl)c1 (stereo not drawn) | -49.1 | 6.51 µM [falling, full curve, poor fit] | 8.2 µM [falling, partial curve]
O=C(c1ccc2c(c1)C(=O)N(Cc1ccco1)C2O)N1CCOCC1 (stereo not drawn) | -59.2 | 1.3 µM [falling, full curve] | 1.03 µM [falling, full curve]
Cc1cccc(N2CCN(C(=O)c3ccccn3)CC2C)c1 (stereo not drawn) |  |  | 2.91 µM [falling, single point]
CC[C@@H](C)[C@H](NC(=O)Cc1c(C)c2c(cc(C)c3c(C)c(C)oc32)oc1=O)C(=O)O | 24.8 | 6.51 µM [rising, single point] | 13 µM [rising, partial curve]
COCCN(CC(=O)NCc1ccc(F)cc1)C(=O)CCC(=O)Nc1ccccn1 | 9.35 |  | 
CC(=O)c1cccc(OCc2cc(C(=O)N3C[C@H]4CC[C@H]3C4)no2)c1 | 5.89 |  | 
COC(=O)c1ccccc1C(=O)N1CCCC(CNC(=O)c2ccc(F)cc2)C1 (stereo not drawn) | -6.49 |  | 

Compound | cell number change [%] | AC50 [1] | AC50 [2]
COc1ccc(Nc2nc(Cl)nc(NCCO)n2)cc1 | 11.2 | 0.146 µM [falling, full curve, poor fit] | 6.51 µM [falling, single point]
O=C(NCc1ccc2c(c1)OCO2)c1cnc2n(c1=O)CCS2 | 21.8 |  | 29.1 µM [rising, single point]
COCCNC(=S)N(CCc1c(C)[nH]c2ccc(Cl)cc12)Cc1cccnc1 | 23.1 |  | 2.59 µM [rising, full curve, poor fit]
COc1ccc(OCC(=O)NCc2n[nH]c(=O)c3ccccc23)cc1 | -24.8 |  | 2.91 µM [falling, partial curve, poor fit]
CCOC(=O)CSc1nnc(CSc2nc3sc4c(c3c(=O)[nH]2)CCCC4)n1-c1ccccc1 | 34.6 | 23.1 µM [rising, single point] | 
COCCn1nnnc1SCC(=O)c1ccccc1 |  |  | 25.9 µM [falling, partial curve]
O=C(Nc1ccc2[nH]c3c(c2c1)CCCC3)c1ccco1 | 229 | 9.2 µM [rising, partial curve] | 6.51 µM [rising, single point]
Cc1cc2n(n1)C(c1ccco1)Nc1ccccc1-2 (stereo not drawn) | 17.8 |  | 
COc1ccc(C(CNC(=O)c2oc3c(Cl)cccc3c2C)N2CCCC2)cc1 (stereo not drawn) |  | 6.51 µM [rising, single point] | 
COc1ccc(S(=O)(=O)N(CC(=O)N/N=C/c2cccs2)c2ccc(C)cc2)cc1OC | 12.4 |  | 0.731 µM [rising, full curve]
Cc1ccc(-c2nnc(SCC(=O)NC3CCCc4ccccc43)n2N)cc1 (stereo not drawn) | -18.6 |  | 3.26 µM [falling, partial curve]
CN(C(=O)COC(=O)c1cccc(S(=O)(=O)N2CCOCC2)c1)C1CCS(=O)(=O)C1 (stereo not drawn) | -3.95 |  | 
Cc1cc(C)c(S(=O)(=O)NC(CC(=O)O)c2cccc([N+](=O)[O-])c2)c(C)c1 (stereo not drawn) | -21.1 |  | 29.1 µM [falling, single point]
O=C(Cc1ccccc1)NCC(=O)N1CCCCC1 | -13.2 | 0.0231 µM [falling, full curve] | 0.00517 µM [falling, full curve, poor fit]
COc1cccc(C(=O)NNC(=O)C(=O)Nc2ccc(C)cc2)c1 | 27.4 | 0.13 µM [rising, full curve, poor fit] | 
[O-]/C(=C(\C(=S)Nc1ccc(Cl)cc1)[n+]1ccccc1)c1ccc(OC(F)F)cc1 | -23.7 |  | 29.1 µM [falling, single point]
Cc1csc(NC(=O)CSc2nccn2Cc2ccco2)n1 | -34.6 |  | 20 µM [falling, single point]
Cc1cc2sc(NC(=O)c3ccco3)nc2cc1Cl | -6.91 |  | 0.082 µM [rising, full curve, poor fit]
CN1CCN(C(=O)c2ccc(-n3cccc3)cc2)CC1 | 27 |  | 23.1 µM [rising, partial curve, poor fit]

8 compounds already listed, sorted by molecular weight, descending.
Compound | cell number change [%] | AC50 [1] | AC50 [2]
CCOC(=O)CSc1nnc(CSc2nc3sc4c(c3c(=O)[nH]2)CCCC4)n1-c1ccccc1 | 34.6 | 23.1 µM [rising, single point] | 
CN(C(=O)COC(=O)c1cccc(S(=O)(=O)N2CCOCC2)c1)C1CCS(=O)(=O)C1 (stereo not drawn) | -3.95 |  | 
COCCNC(=S)N(CCc1c(C)[nH]c2ccc(Cl)cc12)Cc1cccnc1 | 23.1 |  | 2.59 µM [rising, full curve, poor fit]
Cc1ccc(-c2nnc(SCC(=O)NC3CCCc4ccccc43)n2N)cc1 (stereo not drawn) | -18.6 |  | 3.26 µM [falling, partial curve]
COc1ccc(OCC(=O)NCc2n[nH]c(=O)c3ccccc23)cc1 | -24.8 |  | 2.91 µM [falling, partial curve, poor fit]
COc1ccc(Nc2nc(Cl)nc(NCCO)n2)cc1 | 11.2 | 0.146 µM [falling, full curve, poor fit] | 6.51 µM [falling, single point]
COCCn1nnnc1SCC(=O)c1ccccc1 |  |  | 25.9 µM [falling, partial curve]
Cc1cc2n(n1)C(c1ccco1)Nc1ccccc1-2 (stereo not drawn) | 17.8 |  | 
